The values that follow come from publication PMC4773014.

Results are given in words; binding and its absence hold for the method and conditions named. In cells and extracts the contact can be indirect. Binding calls can cover weak binding; strength is not graded here. Tags and fused reporters may be left off the sequences shown.

The experiment concerns the target GFP substituted for the CLCA2 ectodomain, with CLCA2 TMS only (cytoplasmic tail removed) (human). Nature of the experiment: co-IP; cDNAs co-transfected (HEK293T named for Fig 1); lysates immunoprecipitated and immunoblotted with antibodies to FLAG, CLCA2 (TVE20) or GFP; buffer with 0.5% NP40. (In general: A western blot detects proteins with antibodies after separation by electrophoresis.)

B1: Epithelial V-like Antigen 1 (EVA1), FLAG-tagged (protein, UniProt O60487 27-215)
chain: VEIYTSRVLEAVNGTDARLKCTFSSFAPVGDALTVTWNFRPLDGGPEQFVFYYHIDPFQPMSGRFKDRVSWDGNPERYDASILLWKLQFDDNGTYTCQVKNPPDVDGVIGEIRLSVVHTVRFSEIHFLALAIGSACALMIIIVIVVVLFQHYRKKRWAERAHKVVEIKSKEEERLNQEKKVSVYLEDTD
Take B1: the binding result is reported as “binds”.
